Measured values as given in the supplement of paper PMC8728848.
The list shows a part of the results.

Columns and labels:
Test in all cases: glycan array binding signal (z-score within array); higher = stronger binding
Conditions in all cases: glycan notation: IUPAC condensed, linker removed
[1] = target: Gal6S(b1-4)Glc6S
How it was run: (§1)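 The binding signal is a Z-score computed within each array. Data were drawn from 3228 arrays in the Consortium for Functional Glycomics database, restricted to those with a known protein sequence. Scores were averaged over arrays of the same protein sequence at different concentrations or buffers, and over linkers, and negative values can be taken as non-binding.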

[2] = target: Gal6S(b1-4)GlcNAc
How it was run: as §1

[3] = target: Gal6S(b1-4)GlcNAc6S
How it was run: as §1

[4] = target: GalNAc(a1-3)Gal
How it was run: as §1

[5] = target: GalNAc(a1-3)GalNAc
How it was run: as §1

[6] = target: GalNAc(a1-3)GalNAc(b1-3)Gal(a1-4)Gal(b1-4)Glc
How it was run: as §1

[7] = target: GalNAc(a1-3)GalNAc(b1-3)Gal(a1-4)Gal(b1-4)GlcNAc
How it was run: as §1

[8] = target: GalNAc(b1-3)Gal
How it was run: as §1

[9] = target: GalNAc(b1-3)Gal(a1-4)Gal(b1-4)GlcNAc
How it was run: as §1

[10] = target: GalNAc(b1-3)Gal(a1-4)Gal(b1-4)GlcNAc(b1-3)Gal(b1-4)Glc
How it was run: as §1

[11] = target: GalNAc(b1-3)Gal(a1-6)Gal(b1-4)Glc
How it was run: as §1

[12] = target: GalNAc(b1-3)GalNAc
How it was run: as §1

[13] = target: GalNAc(b1-3)GlcNAc
How it was run: as §1

[14] = target: GalNAc(b1-4)Gal(b1-4)Glc
How it was run: as §1

[15] = target: GalNAc(b1-4)GlcNAc
How it was run: as §1

[16] = target: GalNAc(b1-4)GlcNAc(b1-2)Man
How it was run: as §1

[17] = target: GalNAc(b1-4)GlcNAc(b1-2)Man(a1-3)[GalNAc(b1-4)GlcNAc(b1-2)Man(a1-6)]Man(b1-4)GlcNAc(b1-4)GlcNAc
How it was run: as §1

[18] = target: GalNAc(b1-4)GlcNAc(b1-3)GalNAc(b1-4)GlcNAc
How it was run: as §1

[19] = target: GalNAc(b1-4)GlcNAc6S
How it was run: as §1

[20] = target: GalNAc(b1-6)GalNAc
How it was run: as §1

[21] = target: GalNAc3S(b1-4)GlcNAc
How it was run: as §1

[22] = target: GalNAc3S(b1-4)GlcNAc3S
How it was run: as §1

[23] = target: GalNAc3S(b1-4)[Fuc(a1-3)]GlcNAc
How it was run: as §1

[24] = target: GalNAc4S6S(b1-4)GlcNAc
How it was run: as §1

[25] = target: GalNAc6S(b1-4)GlcNAc
How it was run: as §1

[26] = target: Glc(a1-4)Glc
How it was run: as §1

[27] = target: Glc(a1-4)Glc(a1-4)Glc(a1-4)Glc
How it was run: as §1

[28] = target: Glc(a1-6)Glc(a1-6)Glc
How it was run: as §1

[29] = target: Glc(a1-6)Glc(a1-6)Glc(a1-6)Glc
How it was run: as §1

[30] = target: Glc(b1-4)Glc
How it was run: as §1

[31] = target: Glc(b1-6)Glc
How it was run: as §1

[32] = target: GlcA(b1-3)Gal
How it was run: as §1

[33] = target: GlcA(b1-3)GlcNAc
How it was run: as §1

[34] = target: GlcA(b1-6)Gal
How it was run: as §1

[35] = target: GlcA3S(b1-3)Gal(b1-4)GlcNAc(b1-2)Man
How it was run: as §1

[36] = target: GlcA3S(b1-3)Gal(b1-4)GlcNAc(b1-3)Gal(b1-4)Glc
How it was run: as §1

[37] = target: GlcNAc(a1-3)Gal(b1-4)GlcNAc
How it was run: as §1

B1: OS9 (Arabidopsis thaliana) (protein)
chain: MRGSHHHHHHGMASMTGGQQMGRDLYDDDDKSRLQIFPAHLVGTFSRNNREPKYKIEFLPEDSPFHPGDNLESMVMLDKHGNRFLCYLPKEEKATSGWTSSQQNISTVMMETQQLVKLKTPDELLQPLSEKCLFRQEGWWSYEFCHQKYVRQLHVEDENKIVQEFFLGTFDPEATAAFNQTVSDASTDASQRYHSHVYTNGTTCDLTGSPREVEVRFVCAETRAMVTSITELSTCKYALTVQCPTLCKHPLFQLEKPVSHTIHCNAIPVEEDATRNKEEQAVDESPKMIADS
glycan array binding signal (z-score) [1]: -0.724
glycan array binding signal (z-score) [2]: -0.895
glycan array binding signal (z-score) [3]: -0.428
glycan array binding signal (z-score) [4]: -0.979
glycan array binding signal (z-score) [5]: -0.783
glycan array binding signal (z-score) [6]: -1.01
glycan array binding signal (z-score) [7]: -0.458
glycan array binding signal (z-score) [8]: 1.46
glycan array binding signal (z-score) [9]: 0.917
glycan array binding signal (z-score) [10]: 0.833
glycan array binding signal (z-score) [11]: 0.013
glycan array binding signal (z-score) [12]: 0.839
glycan array binding signal (z-score) [13]: 0.076
glycan array binding signal (z-score) [14]: 2.57
glycan array binding signal (z-score) [15]: 0.268
glycan array binding signal (z-score) [16]: 3.58
glycan array binding signal (z-score) [17]: -0.023
glycan array binding signal (z-score) [18]: 1.14
glycan array binding signal (z-score) [19]: 0.489
glycan array binding signal (z-score) [20]: 1.2
glycan array binding signal (z-score) [21]: 2.22
glycan array binding signal (z-score) [22]: -0.058
glycan array binding signal (z-score) [23]: -0.073
glycan array binding signal (z-score) [24]: -0.344
glycan array binding signal (z-score) [25]: -0.314
glycan array binding signal (z-score) [26]: 1.98
glycan array binding signal (z-score) [27]: 1.34
glycan array binding signal (z-score) [28]: -0.542
glycan array binding signal (z-score) [29]: 0.454
glycan array binding signal (z-score) [30]: -0.522
glycan array binding signal (z-score) [31]: 0.2
glycan array binding signal (z-score) [32]: 0.001
glycan array binding signal (z-score) [33]: -0.142
glycan array binding signal (z-score) [34]: -0.646
glycan array binding signal (z-score) [35]: 2.29
glycan array binding signal (z-score) [36]: -0.647
glycan array binding signal (z-score) [37]: 0.737
